Results: paper PMC9723594
Results are given in words; binding and its absence hold for the method and conditions named. Binding seen in cells or lysates may run through a third protein. Some results given as binding are weak or reduced against the parent protein; the word gives no strength. Each block holds one substance with its values, some of them ahead of it.

Chains of the proteins cited; added tags and fusions are not shown.
UniProt O55170: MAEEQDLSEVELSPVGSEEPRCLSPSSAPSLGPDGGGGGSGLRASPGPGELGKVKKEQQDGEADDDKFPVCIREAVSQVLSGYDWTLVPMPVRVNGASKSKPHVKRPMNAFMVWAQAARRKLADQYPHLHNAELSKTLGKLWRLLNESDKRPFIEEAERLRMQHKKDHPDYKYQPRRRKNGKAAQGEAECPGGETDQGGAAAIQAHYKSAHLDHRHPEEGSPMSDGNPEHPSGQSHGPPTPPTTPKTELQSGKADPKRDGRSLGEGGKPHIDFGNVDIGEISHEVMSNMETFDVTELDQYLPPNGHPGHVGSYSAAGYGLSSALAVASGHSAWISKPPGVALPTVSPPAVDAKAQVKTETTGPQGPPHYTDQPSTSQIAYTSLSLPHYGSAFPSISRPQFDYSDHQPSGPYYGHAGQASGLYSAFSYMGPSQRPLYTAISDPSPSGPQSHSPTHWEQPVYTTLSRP
UniProt O35739: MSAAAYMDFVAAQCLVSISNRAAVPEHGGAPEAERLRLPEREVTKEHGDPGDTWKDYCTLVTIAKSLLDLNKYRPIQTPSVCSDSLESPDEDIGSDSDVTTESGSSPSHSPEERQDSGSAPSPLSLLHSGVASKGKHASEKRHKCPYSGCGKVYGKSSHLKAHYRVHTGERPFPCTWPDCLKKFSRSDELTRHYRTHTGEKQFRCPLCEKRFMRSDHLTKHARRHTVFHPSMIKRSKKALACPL
UniProt Q9JJZ6: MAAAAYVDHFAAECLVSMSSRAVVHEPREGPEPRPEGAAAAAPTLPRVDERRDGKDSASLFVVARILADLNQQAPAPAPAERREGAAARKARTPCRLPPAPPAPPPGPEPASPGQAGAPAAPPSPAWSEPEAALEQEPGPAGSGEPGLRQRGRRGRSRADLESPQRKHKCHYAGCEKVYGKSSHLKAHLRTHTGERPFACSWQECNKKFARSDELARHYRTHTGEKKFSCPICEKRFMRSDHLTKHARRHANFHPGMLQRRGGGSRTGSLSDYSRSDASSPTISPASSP
UniProt Q04888: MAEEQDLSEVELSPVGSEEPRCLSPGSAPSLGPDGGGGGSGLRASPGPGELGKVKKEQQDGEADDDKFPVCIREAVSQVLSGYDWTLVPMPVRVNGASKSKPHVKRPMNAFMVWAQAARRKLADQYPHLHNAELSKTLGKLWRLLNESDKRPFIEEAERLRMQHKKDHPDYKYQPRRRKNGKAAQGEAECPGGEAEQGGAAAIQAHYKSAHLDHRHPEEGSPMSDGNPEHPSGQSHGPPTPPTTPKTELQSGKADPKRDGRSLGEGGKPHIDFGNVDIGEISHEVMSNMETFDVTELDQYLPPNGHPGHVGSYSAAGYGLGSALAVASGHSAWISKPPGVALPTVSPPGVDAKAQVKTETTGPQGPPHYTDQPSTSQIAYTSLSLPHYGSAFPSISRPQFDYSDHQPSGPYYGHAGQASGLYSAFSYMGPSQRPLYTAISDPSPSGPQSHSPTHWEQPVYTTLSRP

Key:
SOX10 = SOX10 (UniProt O55170); assay: co-IP; extracts of HEK293 cells transfected with one protein, the other or both; precipitation with rabbit antisera (anti-SOX10, anti-KLF13, anti-KLF9) or anti-myc-tag monoclonals coupled to protein A sepharose beads; Western blot
[1] = target: myc-tagged KLF9 (Krüppel-like factor 9) (mouse) (UniProt O35739); assay: as above
[2] = target: KLF13 (Krüppel-like factor 13) (mouse) (UniProt Q9JJZ6); assay: as above
[3] = target: KLF9, endogenous in primary oligodendroglial cells (not stated (endogenous in primary oligodendroglial cells, mouse or rat)) (UniProt O35739); assay: co-IP; endogenous proteins in extracts of primary oligodendroglial cells kept for 3 days or more under differentiating conditions; antisera against KLF9 or KLF13, pre-immune sera as control; Western blot for SOX10
[4] = target: KLF13, endogenous in primary oligodendroglial cells (not stated (endogenous in primary oligodendroglial cells, mouse or rat)) (UniProt Q9JJZ6); assay: as above

- binding (SOX10): binds
Substance: myc-tagged KLF9 (Krüppel-like factor 9) (from UniProt O35739 1-244)

- binding (SOX10): binds
Substance: KLF13 (Krüppel-like factor 13) (from UniProt Q9JJZ6 1-289)

- binding [1]: binds
- binding [2]: binds
Substance: SOX10 (from UniProt O55170 1-466)

- binding [3]: binds
- binding [4]: binds
Substance: SOX10, endogenous in primary oligodendroglial cells (from UniProt Q04888 1-466)
